Test results as given in the supplement of paper PMC7666118.
This is one part of the list.

By UniProt entry, the sequences of proteins in these tests, tags left out. Where a name states a change or a piece, a line headed by the entry shows the natural chain unless it says otherwise.
UniProt P30405: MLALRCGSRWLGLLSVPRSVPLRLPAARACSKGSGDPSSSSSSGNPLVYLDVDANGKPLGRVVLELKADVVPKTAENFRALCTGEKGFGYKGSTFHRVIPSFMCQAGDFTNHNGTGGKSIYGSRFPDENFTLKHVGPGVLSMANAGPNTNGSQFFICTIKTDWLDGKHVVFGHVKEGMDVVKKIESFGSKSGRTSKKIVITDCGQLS
UniProt O75817: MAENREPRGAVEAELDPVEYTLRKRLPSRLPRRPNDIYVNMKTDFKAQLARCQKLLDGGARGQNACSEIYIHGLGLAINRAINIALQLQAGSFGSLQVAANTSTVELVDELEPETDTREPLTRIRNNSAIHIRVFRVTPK
UniProt P49643: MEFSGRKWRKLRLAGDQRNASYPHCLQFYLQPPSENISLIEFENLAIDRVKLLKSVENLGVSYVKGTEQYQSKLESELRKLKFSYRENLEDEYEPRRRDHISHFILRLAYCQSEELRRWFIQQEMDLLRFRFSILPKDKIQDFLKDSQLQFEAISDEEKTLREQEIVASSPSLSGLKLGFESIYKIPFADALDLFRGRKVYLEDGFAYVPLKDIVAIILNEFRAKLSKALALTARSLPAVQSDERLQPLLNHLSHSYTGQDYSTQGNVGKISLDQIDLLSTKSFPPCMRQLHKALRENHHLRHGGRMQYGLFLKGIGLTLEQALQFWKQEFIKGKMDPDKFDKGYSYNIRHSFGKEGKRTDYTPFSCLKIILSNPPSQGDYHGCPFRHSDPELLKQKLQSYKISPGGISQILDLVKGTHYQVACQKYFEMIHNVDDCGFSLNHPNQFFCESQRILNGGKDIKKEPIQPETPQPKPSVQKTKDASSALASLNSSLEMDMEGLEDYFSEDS
UniProt Q07864, whole entry: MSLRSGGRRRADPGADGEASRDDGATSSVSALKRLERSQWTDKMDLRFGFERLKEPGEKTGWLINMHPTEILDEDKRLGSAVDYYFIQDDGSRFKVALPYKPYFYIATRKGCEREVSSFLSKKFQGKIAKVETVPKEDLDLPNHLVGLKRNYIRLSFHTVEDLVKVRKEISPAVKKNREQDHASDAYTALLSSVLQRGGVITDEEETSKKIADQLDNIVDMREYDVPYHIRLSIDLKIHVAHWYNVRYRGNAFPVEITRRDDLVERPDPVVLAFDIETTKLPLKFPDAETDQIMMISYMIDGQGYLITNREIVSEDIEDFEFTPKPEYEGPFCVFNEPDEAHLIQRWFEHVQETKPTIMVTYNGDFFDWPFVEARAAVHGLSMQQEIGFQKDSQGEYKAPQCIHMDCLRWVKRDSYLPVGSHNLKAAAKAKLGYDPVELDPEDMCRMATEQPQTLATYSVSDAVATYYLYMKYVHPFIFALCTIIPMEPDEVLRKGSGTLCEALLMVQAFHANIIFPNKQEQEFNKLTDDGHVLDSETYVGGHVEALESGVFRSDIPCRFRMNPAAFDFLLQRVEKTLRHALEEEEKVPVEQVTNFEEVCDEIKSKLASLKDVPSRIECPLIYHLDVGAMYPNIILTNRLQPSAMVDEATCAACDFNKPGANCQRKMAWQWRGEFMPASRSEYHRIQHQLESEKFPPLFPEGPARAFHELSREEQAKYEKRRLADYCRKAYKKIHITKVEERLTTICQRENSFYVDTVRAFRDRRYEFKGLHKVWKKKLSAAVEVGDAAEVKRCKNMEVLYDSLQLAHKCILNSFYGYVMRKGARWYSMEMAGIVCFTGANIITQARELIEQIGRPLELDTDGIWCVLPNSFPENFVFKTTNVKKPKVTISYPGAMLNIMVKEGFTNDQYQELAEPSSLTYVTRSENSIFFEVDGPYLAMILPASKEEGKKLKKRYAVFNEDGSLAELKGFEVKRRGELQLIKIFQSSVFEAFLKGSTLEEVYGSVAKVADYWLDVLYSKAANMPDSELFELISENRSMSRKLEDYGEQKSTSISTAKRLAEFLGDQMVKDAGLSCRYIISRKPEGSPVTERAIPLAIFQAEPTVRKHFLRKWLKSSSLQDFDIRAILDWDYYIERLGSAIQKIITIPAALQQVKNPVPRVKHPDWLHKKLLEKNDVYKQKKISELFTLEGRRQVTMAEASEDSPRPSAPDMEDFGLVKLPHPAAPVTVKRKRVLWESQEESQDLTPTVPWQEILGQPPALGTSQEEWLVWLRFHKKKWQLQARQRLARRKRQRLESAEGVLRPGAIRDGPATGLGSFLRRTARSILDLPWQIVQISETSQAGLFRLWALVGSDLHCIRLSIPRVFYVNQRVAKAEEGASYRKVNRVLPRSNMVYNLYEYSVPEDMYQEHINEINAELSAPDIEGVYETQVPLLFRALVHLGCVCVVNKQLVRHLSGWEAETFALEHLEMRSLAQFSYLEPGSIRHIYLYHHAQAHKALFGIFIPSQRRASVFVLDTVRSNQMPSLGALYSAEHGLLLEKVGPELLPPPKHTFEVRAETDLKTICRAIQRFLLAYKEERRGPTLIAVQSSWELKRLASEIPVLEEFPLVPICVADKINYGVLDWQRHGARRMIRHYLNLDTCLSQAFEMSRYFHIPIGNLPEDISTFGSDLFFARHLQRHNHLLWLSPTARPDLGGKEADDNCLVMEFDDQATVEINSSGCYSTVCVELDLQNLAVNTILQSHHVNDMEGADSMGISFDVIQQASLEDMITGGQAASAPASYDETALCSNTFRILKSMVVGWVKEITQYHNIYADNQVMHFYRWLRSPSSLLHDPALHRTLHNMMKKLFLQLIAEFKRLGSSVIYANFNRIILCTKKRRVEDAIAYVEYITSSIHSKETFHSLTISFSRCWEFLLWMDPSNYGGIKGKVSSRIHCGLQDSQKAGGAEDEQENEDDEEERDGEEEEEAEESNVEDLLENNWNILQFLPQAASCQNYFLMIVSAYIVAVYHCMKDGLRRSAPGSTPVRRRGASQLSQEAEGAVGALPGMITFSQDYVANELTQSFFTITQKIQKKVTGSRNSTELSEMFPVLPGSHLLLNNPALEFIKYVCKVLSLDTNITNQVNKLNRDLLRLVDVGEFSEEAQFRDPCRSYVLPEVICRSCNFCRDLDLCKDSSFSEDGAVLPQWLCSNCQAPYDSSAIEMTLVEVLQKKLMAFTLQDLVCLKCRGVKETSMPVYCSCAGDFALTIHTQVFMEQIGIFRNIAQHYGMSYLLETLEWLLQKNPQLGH
UniProt P28066: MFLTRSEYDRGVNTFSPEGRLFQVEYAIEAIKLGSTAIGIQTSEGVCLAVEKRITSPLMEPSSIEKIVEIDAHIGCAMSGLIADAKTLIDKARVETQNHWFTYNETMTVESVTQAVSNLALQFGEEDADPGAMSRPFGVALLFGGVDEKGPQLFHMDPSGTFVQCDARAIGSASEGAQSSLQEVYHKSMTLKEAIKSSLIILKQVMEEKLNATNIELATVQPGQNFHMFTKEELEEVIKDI
UniProt Q9Y4D7: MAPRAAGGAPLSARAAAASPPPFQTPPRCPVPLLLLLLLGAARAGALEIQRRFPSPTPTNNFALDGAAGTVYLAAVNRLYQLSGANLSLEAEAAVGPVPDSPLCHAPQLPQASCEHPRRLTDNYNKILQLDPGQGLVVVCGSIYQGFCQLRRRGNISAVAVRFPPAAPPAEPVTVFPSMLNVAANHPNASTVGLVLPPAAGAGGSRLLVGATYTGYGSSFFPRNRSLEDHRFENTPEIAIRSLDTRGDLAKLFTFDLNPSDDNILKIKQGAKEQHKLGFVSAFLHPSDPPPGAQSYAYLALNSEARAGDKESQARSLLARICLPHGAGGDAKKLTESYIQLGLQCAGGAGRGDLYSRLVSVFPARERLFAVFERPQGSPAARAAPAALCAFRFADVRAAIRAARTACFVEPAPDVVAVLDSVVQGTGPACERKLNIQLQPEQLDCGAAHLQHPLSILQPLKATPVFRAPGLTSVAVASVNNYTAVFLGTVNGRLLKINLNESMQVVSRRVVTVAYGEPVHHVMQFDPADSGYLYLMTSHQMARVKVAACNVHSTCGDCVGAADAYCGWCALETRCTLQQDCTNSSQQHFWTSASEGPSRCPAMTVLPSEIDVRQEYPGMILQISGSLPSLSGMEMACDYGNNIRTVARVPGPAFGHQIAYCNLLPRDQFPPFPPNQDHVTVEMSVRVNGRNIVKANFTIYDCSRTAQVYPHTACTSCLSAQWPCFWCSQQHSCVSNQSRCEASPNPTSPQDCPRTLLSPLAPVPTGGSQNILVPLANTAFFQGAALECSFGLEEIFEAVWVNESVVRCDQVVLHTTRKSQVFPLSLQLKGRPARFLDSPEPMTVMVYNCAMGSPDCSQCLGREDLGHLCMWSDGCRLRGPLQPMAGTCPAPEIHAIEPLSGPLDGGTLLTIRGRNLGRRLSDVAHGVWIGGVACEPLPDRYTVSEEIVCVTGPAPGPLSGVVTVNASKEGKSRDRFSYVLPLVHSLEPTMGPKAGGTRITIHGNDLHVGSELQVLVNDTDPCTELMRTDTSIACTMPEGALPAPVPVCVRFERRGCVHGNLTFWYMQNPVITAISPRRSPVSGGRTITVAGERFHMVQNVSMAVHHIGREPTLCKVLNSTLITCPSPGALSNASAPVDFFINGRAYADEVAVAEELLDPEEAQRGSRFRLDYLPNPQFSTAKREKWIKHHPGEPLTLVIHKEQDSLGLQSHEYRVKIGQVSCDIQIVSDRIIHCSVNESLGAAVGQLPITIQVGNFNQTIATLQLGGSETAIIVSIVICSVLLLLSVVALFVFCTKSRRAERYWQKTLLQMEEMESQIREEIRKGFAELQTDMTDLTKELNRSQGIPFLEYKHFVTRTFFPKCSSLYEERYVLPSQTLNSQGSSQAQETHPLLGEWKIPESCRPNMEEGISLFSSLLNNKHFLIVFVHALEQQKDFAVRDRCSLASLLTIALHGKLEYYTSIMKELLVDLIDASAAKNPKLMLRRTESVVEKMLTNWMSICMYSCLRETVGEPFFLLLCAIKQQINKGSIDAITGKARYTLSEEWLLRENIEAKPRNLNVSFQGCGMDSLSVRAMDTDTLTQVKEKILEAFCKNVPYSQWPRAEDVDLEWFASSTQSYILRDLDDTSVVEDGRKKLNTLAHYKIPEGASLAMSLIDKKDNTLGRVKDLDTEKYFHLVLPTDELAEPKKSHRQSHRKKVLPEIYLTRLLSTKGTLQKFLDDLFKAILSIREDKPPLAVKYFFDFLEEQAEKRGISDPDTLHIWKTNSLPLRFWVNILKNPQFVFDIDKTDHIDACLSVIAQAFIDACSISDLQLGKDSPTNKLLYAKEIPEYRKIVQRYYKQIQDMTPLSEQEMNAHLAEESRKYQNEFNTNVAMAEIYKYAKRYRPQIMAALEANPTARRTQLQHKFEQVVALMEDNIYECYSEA
UniProt Q96SB3: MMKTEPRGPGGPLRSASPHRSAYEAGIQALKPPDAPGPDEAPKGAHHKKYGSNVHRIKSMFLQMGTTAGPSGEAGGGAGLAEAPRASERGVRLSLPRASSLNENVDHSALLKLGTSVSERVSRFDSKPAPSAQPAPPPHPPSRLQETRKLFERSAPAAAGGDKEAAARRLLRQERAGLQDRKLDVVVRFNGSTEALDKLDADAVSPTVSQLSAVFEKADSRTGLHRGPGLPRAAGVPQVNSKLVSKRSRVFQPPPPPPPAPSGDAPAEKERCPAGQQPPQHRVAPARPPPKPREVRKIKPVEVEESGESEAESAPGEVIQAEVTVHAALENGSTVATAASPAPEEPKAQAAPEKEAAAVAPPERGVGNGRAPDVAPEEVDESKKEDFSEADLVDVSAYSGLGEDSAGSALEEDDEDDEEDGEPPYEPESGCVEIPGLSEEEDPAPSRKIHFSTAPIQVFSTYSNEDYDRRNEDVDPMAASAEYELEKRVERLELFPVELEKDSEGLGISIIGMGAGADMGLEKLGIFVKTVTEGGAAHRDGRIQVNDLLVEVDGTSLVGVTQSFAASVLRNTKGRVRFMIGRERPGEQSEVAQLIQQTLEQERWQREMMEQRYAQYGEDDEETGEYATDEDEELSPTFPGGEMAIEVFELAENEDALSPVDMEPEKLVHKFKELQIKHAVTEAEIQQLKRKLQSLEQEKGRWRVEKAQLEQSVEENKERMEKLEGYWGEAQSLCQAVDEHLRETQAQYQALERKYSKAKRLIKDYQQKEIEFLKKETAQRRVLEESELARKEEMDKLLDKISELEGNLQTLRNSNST
UniProt P62195, whole entry: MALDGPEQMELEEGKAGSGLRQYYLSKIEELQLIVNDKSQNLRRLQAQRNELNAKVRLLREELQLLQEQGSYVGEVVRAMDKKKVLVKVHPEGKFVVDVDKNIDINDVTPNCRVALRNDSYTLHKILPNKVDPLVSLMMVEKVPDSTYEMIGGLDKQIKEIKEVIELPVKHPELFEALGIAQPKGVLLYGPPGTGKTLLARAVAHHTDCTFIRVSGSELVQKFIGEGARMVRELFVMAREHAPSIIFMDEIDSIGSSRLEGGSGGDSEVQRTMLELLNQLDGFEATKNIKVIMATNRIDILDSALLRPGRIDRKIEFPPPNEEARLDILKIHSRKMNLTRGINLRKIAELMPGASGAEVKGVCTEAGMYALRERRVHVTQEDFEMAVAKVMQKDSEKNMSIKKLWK

Compound: COc1ccc(Cn2ccc3cc(C)c(C(=O)NO)cc32)cc1
Experiment: dose-dependent thermal stabilisation call (2D-TPP, DLPTP, 10% FDR) (binary (1 = stabilised)); higher = stabilised by the compound
Settings: system: HL-60 intact cells; concentration range 0.04-10 µM
Description: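 2D thermal proteome profiling in intact HL-60 cells treated with BRD-3811 (0, 0.04, 0.29, 2, 10 uM) for 90 min at 37 C, then heated 3 min at one of 12 temperatures (42-63.9 C). Soluble protein was quantified by TMT10 MS. The value is the DLPTP call of the paper: dose-dependent thermal stabilisation over all temperatures at 10% FDR (F-test of a dose-response against a flat model); one experiment, one call per tested protein.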

Target | dose-dependent thermal stabilisation call
PREPL (UniProt Q4J6C6) | inactive: 0
PRKDC (UniProt P78527) | inactive: 0
PPIF (UniProt P30405) | inactive: 0
POLR2B (UniProt P30876) | inactive: 0
PSMD2 (UniProt Q13200) | inactive: 0
PTGS1 (UniProt P23219) | inactive: 0
PPP1CB (UniProt P62140) | inactive: 0
PRPF3 (UniProt O43395) | inactive: 0
PPP2R1A (UniProt P30153) | inactive: 0
PNKP (UniProt Q96T60) | inactive: 0
PM20D2 (UniProt Q8IYS1) | inactive: 0
POP7 (UniProt O75817) | inactive: 0
PPP3CC (UniProt P48454) | inactive: 0
PSMA4 (UniProt P25789) | inactive: 0
PPM1F (UniProt P49593) | inactive: 0
PTAR1 (UniProt Q7Z6K3) | inactive: 0
PRIM2 (UniProt P49643) | inactive: 0
PRPF38A (UniProt Q8NAV1) | inactive: 0

Looked up above:
Entry for PPP2R1A (UniProt P30153) under dose-dependent thermal stabilisation call: inactive: 0
Entry for PTAR1 (UniProt Q7Z6K3) under dose-dependent thermal stabilisation call: inactive: 0
Entry for POLR2B (UniProt P30876) under dose-dependent thermal stabilisation call: inactive: 0

Further entries follow.

Target | dose-dependent thermal stabilisation call
POLD3 (UniProt Q15054) | inactive: 0
POLE (UniProt Q07864) | inactive: 0
POLR2L (UniProt P62875) | inactive: 0
PSMA5 (UniProt P28066) | inactive: 0
PPP6C (UniProt O00743) | inactive: 0
PPFIBP1 (UniProt Q86W92) | inactive: 0
PSMG1 (UniProt O95456) | inactive: 0
PPIG (UniProt Q13427) | inactive: 0
PQBP1 (UniProt O60828) | inactive: 0
PSIP1 (UniProt O75475) | inactive: 0
PSMA6 (UniProt P60900) | inactive: 0
PPP4R1 (UniProt Q8TF05) | inactive: 0
POMGNT1 (UniProt Q8WZA1) | inactive: 0
PLXND1 (UniProt Q9Y4D7) | inactive: 0
PPP1R9B (UniProt Q96SB3) | inactive: 0
PSMC5 (UniProt P62195) | inactive: 0
PRKAB1 (UniProt Q9Y478) | inactive: 0
PTPN23 (UniProt Q9H3S7) | inactive: 0
